# Experimental data reported in PMC6123687.
# Sequences of proteins named here, by UniProt entry; tags and fusion partners are left off.
# UniProt O81445: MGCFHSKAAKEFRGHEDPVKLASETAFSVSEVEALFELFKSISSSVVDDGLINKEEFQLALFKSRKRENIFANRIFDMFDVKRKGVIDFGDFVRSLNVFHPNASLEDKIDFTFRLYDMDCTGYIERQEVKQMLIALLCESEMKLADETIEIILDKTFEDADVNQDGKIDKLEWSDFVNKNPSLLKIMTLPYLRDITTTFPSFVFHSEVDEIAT
# Results are given in words; binding and its absence hold for the method and conditions named. For some assays here: In cells and extracts the contact can be indirect. Some results given as binding are weak or reduced against the parent protein; the word gives no strength. Tags and fused reporters may be left off the sequences shown.
# Target: Arabidopsis bZIP63 as bZIP63-YFP^N and bZIP63-YFP^C (Arabidopsis) (UniProt B9DGI8)
# Assay: split reporter; BiFC (split YFP) in onion epidermal cells, particle bombardment, 18 h at 23°C, confocal microscopy
row,binding,Binder
1,binds,"Arabidopsis bZIP63 as bZIP63-YFP^N and bZIP63-YFP^C (protein, UniProt B9DGI8 1-314) MEKVFSDEEISGNHHWSVNGMTSLNRSASEWAFNRFIQESSAAADDGESTTACGVSVSSPPNVPVDSEEYRAFLKSKLNLACAAVAMKRGTFIKPQDTSGRSDNGGANESEQASLASSKATPMMSSAITSGSELSGDEEEADGETNMNPTNVKRVKRMLSNRESARRSRRRKQAHLSELETQVSQLRVENSKLMKGLTDVTQTFNDASVENRVLKANIETLRAKVKMAEETVKRLTGFNPMFHNMPQIVSTVSLPSETSNSPDTTSSQVTTPEIISSGNKGKALIGCKMNRTASMRRVESLEHLQKRIRSVGDQ"

# Target: Arabidopsis CBL1 (AtCBL1) as two-hybrid fusion of Figure 4B (Arabidopsis) (UniProt O81445)
# Assay: two-hybrid; Gal4p-based system, yeast strain Y190; growth on SC-His-Leu-Trp with 25 mM 3-amino-1,2,4-aminotriazole (HIS3) and beta-galactosidase filter-lift assay
row,binding,Binder
1,binds,"AD⋅CIPK17 (pGAD⋅CIPK17), Arabidopsis CIPK17 in the Gal4 activation domain vector (protein, UniProt Q94C40 1-432) MVIKGMRVGKYELGRTLGEGNSAKVKFAIDTLTGESFAIKIIEKSCITRLNVSFQIKREIRTLKVLKHPNIVRLHEVLASKTKIYMVLECVTGGDLFDRIVSKGKLSETQGRKMFQQLIDGVSYCHNKGVFHRDLKLENVLLDAKGHIKITDFGLSALSQHYREDGLLHTTCGSPNYVAPEVLANEGYDGAASDIWSCGVILYVILTGCLPFDDANLAVICRKIFKGDPPIPRWISLGAKTMIKRMLDPNPVTRVTIAGIKAHDWFKHDYTPSNYDDDDDVYLIQEDVFMMKEYEEEKSPDSPTIINAFQLIGMSSFLDLSGFFETEKLSERQIRFTSNSLAKDLLENIETIFTEMGFCLQKKHAKLKAIKEESTQKRQCGLSVTAEVFEISPSLNVVELRKSHGDSSLYKQLYERLLNELGSSSQVQELLA"
2,binds,"AD⋅CIPK18 (pGAD⋅CIPK18), Arabidopsis CIPK18 in the Gal4 activation domain vector (protein, UniProt Q9LP51 1-520) MAQALAQPPLVVTTVVPDPPPPPPPPHPKPYALRYMADLLGRIGIMDTDKDGNISPQSPRSPRSPRNNILMGKYELGKLLGHGTFAKVYLAQNIKSGDKVAIKVIDKEKIMKSGLVAHIKREISILRRVRHPYIVHLFEVMATKSKIYFVMEYVGGGELFNTVAKGRLPEETARRYFQQLISSVSFCHGRGVYHRDLKPENLLLDNKGNLKVSDFGLSAVAEQLRQDGLCHTFCGTPAYIAPEVLTRKGYDAAKADVWSCGVILFVLMAGHIPFYDKNIMVMYKKIYKGEFRCPRWFSSDLVRLLTRLLDTNPDTRITIPEIMKNRWFKKGFKHVKFYIEDDKLCREDEDEEEEASSSGRSSTVSESDAEFDVKRMGIGSMPRPSSLNAFDIISFSSGFDLSGLFEEEGGEGTRFVSGAPVSKIISKLEEIAKIVSFTVRKKEWSLRLEGCREGAKGPLTIAAEIFELTPSLVVVEVKKKGGDREEYEEFCNKELRPELEKLIHEEVVVEEALYLPSDTE"
3,binds,"AD⋅CIPK8 (pGAD⋅CIPK8), Arabidopsis CIPK8 in the Gal4 activation domain vector (protein, UniProt Q9STV4 1-445) MVVRKVGKYELGRTIGEGTFAKVKFAQNTETGESVAMKIVDRSTIIKRKMVDQIKREISIMKLVRHPCVVRLYEVLASRTKIYIILEYITGGELFDKIVRNGRLSESEARKYFHQLIDGVDYCHSKGVYHRDLKPENLLLDSQGNLKISDFGLSALPEQGVTILKTTCGTPNYVAPEVLSHKGYNGAVADIWSCGVILYVLMAGYLPFDEMDLPTLYSKIDKAEFSCPSYFALGAKSLINRILDPNPETRITIAEIRKDEWFLKDYTPVQLIDYEHVNLDDVYAAFDDPEEQTYAQDGTRDTGPLTLNAFDLIILSQGLNLATLFDRGKDSMKHQTRFISHKPANVVLSSMEVVSQSMGFKTHIRNYKMRVEGLSANKTSHFSVILEVFKVAPSILMVDIQNAAGDAEEYLKFYKTFCSKLDDIIWKPPDASMRNRVTKAKSKRR"
4,binds,"AD⋅CIPK23 (pGAD⋅CIPK23), Arabidopsis CIPK23 in the Gal4 activation domain vector (protein, UniProt Q93VD3 1-482) MASRTTPSRSTPSRSTPSGSSSGGRTRVGKYELGRTLGEGTFAKVKFARNVENGDNVAIKVIDKEKVLKNKMIAQIKREISTMKLIKHPNVIRMFEVMASKTKIYFVLEFVTGGELFDKISSNGRLKEDEARKYFQQLINAVDYCHSRGVYHRDLKPENLLLDANGALKVSDFGLSALPQQVREDGLLHTTCGTPNYVAPEVINNKGYDGAKADLWSCGVILFVLMAGYLPFEDSNLTSLYKKIFKAEFTCPPWFSASAKKLIKRILDPNPATRITFAEVIENEWFKKGYKAPKFENADVSLDDVDAIFDDSGESKNLVVERREEGLKTPVTMNAFELISTSQGLNLGSLFEKQMGLVKRKTRFTSKSSANEIVTKIEAAAAPMGFDVKTNNYKMKLTGEKSGRKGQLAVATEVFQVAPSLYMVEMRKSGGDTLEFHKFYKNLTTGLKDIVWKTIDEEKEEGTDGGGTNGAMANRTIAKQST"
5,binds,"AD⋅CIPK7 (pGAD⋅CIPK7), Arabidopsis CIPK7 in the Gal4 activation domain vector (protein, UniProt Q9XIW0 1-429) MESLPQPQNQSSPATTPAKILLGKYELGRRLGSGSFAKVHLARSIESDELVAVKIIEKKKTIESGMEPRIIREIDAMRRLRHHPNILKIHEVMATKSKIYLVMELASGGELFSKVLRRGRLPESTARRYFQQLASALRFSHQDGVAHRDVKPQNLLLDEQGNLKVSDFGLSALPEHLQNGLLHTACGTPAYTAPEVISRRGYDGAKADAWSCGVILFVLLVGDVPFDDSNIAAMYRKIHRRDYRFPSWISKQAKSIIYQMLDPNPVTRMSIETVMKTNWFKKSLETSEFHRNVFDSEVEMKSSVNSITAFDLISLSSGLDLSGLFEAKKKKERRFTAKVSGVEVEEKAKMIGEKLGYVVKKKMMKKEGEVKVVGLGRGRTVIVVEAVELTVDVVVVEVKVVEGEEDDSRWSDLITELEDIVLSWHNDIM"
6,binds,"AD⋅CIPK1 (pGAD⋅AtCIPK1), Arabidopsis CBL-interacting protein kinase 1 in the Gal4 activation domain vector (protein, UniProt Q8RWC9 1-444) MVRRQEEEKKAEKGMRLGKYELGRTLGEGNFGKVKFAKDTVSGHSFAVKIIDKSRIADLNFSLQIKREIRTLKMLKHPHIVRLHEVLASKTKINMVMELVTGGELFDRIVSNGKLTETDGRKMFQQLIDGISYCHSKGVFHRDLKLENVLLDAKGHIKITDFGLSALPQHFRDDGLLHTTCGSPNYVAPEVLANRGYDGAASDIWSCGVILYVILTGCLPFDDRNLAVLYQKICKGDPPIPRWLSPGARTMIKRMLDPNPVTRITVVGIKASEWFKLEYIPSIPDDDDEEEVDTDDDAFSIQELGSEEGKGSDSPTIINAFQLIGMSSFLDLSGFFEQENVSERRIRFTSNSSAKDLLEKIETAVTEMGFSVQKKHAKLRVKQEERNQKGQVGLSVTAEVFEIKPSLNVVELRKSYGDSCLYRQLYERLLKDVGTSSPEQEIVT"
7,binds,"AD⋅CIPK12 (pGAD⋅CIPK12), Arabidopsis CIPK12 in the Gal4 activation domain vector (protein, UniProt Q9SN43 1-489) MAEKITRETSLPKERSSPQALILGRYEMGKLLGHGTFAKVYLARNVKTNESVAIKVIDKEKVLKGGLIAHIKREISILRRVRHPNIVQLFEVMATKAKIYFVMEYVRGGELFNKVAKGRLKEEVARKYFQQLISAVTFCHARGVYHRDLKPENLLLDENGNLKVSDFGLSAVSDQIRQDGLFHTFCGTPAYVAPEVLARKGYDAAKVDIWSCGVILFVLMAGYLPFHDRNVMAMYKKIYRGEFRCPRWFSTELTRLLSKLLETNPEKRFTFPEIMENSWFKKGFKHIKFYVEDDKLCNVVDDDELESDSVESDRDSAASESEIEYLEPRRRVGGLPRPASLNAFDIISFSQGFDLSGLFDDDGEGSRFVSGAPVSKIISKLEEIAKVVSFTVRKKDCRVSLEGSRQGVKGPLTIAAEIFELTPSLVVVEVKKKGGDKTEYEDFCNNELKPKLQNLTADDVVAEPVAVSAVDETAIPNSPTISFLPSDTE"
8,binds,"AD⋅CIPK5 (pGAD⋅CIPK5), Arabidopsis CIPK5 in the Gal4 activation domain vector (protein, UniProt Q9LEU7 1-445) MEEERRVLFGKYEMGRLLGKGTFAKVYYGKEIIGGECVAIKVINKDQVMKRPGMMEQIKREISIMKLVRHPNIVELKEVMATKTKIFFVMEFVKGGELFCKISKGKLHEDAARRYFQQLISAVDYCHSRGVSHRDLKPENLLLDENGDLKISDFGLSALPEQILQDGLLHTQCGTPAYVAPEVLKKKGYDGAKADIWSCGVVLYVLLAGCLPFQDENLMNMYRKIFRADFEFPPWFSPEARRLISKLLVVDPDRRISIPAIMRTPWLRKNFTPPLAFKIDEPICSQSSKNNEEEEEDGDCENQTEPISPKFFNAFEFISSMSSGFDLSSLFESKRKVQSVFTSRSSATEVMEKIETVTKEMNMKVKRTKDFKVKMEGKTEGRKGRLSMTAEVFEVAPEISVVEFCKSAGDTLEYDRLYEEEVRPALNDIVWSWHGDNNNTSSEDC"
9,binds,"AD⋅CIPK11 (pGAD⋅CIPK11), Arabidopsis CIPK11 in the Gal4 activation domain vector (protein, UniProt O22932 1-435) MPEIEIAAGSGDNNDALFGKYELGKLLGCGAFAKVFHARDRRTGQSVAVKILNKKKLLTNPALANNIKREISIMRRLSHPNIVKLHEVMATKSKIFFAMEFVKGGELFNKISKHGRLSEDLSRRYFQQLISAVGYCHARGVYHRDLKPENLLIDENGNLKVSDFGLSALTDQIRPDGLLHTLCGTPAYVAPEILSKKGYEGAKVDVWSCGIVLFVLVAGYLPFNDPNVMNMYKKIYKGEYRFPRWMSPDLKRFVSRLLDINPETRITIDEILKDPWFVRGGFKQIKFHDDEIEDQKVESSLEAVKSLNAFDLISYSSGLDLSGLFAGCSNSSGESERFLSEKSPEMLAEEVEGFAREENLRMKKKKEEEYGFEMEGQNGKFGIGICISRLNDLLVVVEARRRGGDGDCYKEMWNGKLRVQLIRVCDQTSSTNAAI"
10,binds,"AD⋅CIPK24 (pGAD⋅CIPK24), Arabidopsis CIPK24 in the Gal4 activation domain vector (protein, UniProt Q9LDI3 1-446) MTKKMRRVGKYEVGRTIGEGTFAKVKFARNTDTGDNVAIKIMAKSTILKNRMVDQIKREISIMKIVRHPNIVRLYEVLASPSKIYIVLEFVTGGELFDRIVHKGRLEESESRKYFQQLVDAVAHCHCKGVYHRDLKPENLLLDTNGNLKVSDFGLSALPQEGVELLRTTCGTPNYVAPEVLSGQGYDGSAADIWSCGVILFVILAGYLPFSETDLPGLYRKINAAEFSCPPWFSAEVKFLIHRILDPNPKTRIQIQGIKKDPWFRLNYVPIRAREEEEVNLDDIRAVFDGIEGSYVAENVERNDEGPLMMNAFEMITLSQGLNLSALFDRRQDFVKRQTRFVSRREPSEIIANIEAVANSMGFKSHTRNFKTRLEGLSSIKAGQLAVVIEIYEVAPSLFMVDVRKAAGETLEYHKFYKKLCSKLENIIWRATEGIPKSEILRTITF"
